Publication PMC5320500

Chains of the proteins cited; added tags and fusions are not shown. Lines headed by an entry give the natural chain unless they say otherwise; changes in a name come on top.
UniProt Q5D869: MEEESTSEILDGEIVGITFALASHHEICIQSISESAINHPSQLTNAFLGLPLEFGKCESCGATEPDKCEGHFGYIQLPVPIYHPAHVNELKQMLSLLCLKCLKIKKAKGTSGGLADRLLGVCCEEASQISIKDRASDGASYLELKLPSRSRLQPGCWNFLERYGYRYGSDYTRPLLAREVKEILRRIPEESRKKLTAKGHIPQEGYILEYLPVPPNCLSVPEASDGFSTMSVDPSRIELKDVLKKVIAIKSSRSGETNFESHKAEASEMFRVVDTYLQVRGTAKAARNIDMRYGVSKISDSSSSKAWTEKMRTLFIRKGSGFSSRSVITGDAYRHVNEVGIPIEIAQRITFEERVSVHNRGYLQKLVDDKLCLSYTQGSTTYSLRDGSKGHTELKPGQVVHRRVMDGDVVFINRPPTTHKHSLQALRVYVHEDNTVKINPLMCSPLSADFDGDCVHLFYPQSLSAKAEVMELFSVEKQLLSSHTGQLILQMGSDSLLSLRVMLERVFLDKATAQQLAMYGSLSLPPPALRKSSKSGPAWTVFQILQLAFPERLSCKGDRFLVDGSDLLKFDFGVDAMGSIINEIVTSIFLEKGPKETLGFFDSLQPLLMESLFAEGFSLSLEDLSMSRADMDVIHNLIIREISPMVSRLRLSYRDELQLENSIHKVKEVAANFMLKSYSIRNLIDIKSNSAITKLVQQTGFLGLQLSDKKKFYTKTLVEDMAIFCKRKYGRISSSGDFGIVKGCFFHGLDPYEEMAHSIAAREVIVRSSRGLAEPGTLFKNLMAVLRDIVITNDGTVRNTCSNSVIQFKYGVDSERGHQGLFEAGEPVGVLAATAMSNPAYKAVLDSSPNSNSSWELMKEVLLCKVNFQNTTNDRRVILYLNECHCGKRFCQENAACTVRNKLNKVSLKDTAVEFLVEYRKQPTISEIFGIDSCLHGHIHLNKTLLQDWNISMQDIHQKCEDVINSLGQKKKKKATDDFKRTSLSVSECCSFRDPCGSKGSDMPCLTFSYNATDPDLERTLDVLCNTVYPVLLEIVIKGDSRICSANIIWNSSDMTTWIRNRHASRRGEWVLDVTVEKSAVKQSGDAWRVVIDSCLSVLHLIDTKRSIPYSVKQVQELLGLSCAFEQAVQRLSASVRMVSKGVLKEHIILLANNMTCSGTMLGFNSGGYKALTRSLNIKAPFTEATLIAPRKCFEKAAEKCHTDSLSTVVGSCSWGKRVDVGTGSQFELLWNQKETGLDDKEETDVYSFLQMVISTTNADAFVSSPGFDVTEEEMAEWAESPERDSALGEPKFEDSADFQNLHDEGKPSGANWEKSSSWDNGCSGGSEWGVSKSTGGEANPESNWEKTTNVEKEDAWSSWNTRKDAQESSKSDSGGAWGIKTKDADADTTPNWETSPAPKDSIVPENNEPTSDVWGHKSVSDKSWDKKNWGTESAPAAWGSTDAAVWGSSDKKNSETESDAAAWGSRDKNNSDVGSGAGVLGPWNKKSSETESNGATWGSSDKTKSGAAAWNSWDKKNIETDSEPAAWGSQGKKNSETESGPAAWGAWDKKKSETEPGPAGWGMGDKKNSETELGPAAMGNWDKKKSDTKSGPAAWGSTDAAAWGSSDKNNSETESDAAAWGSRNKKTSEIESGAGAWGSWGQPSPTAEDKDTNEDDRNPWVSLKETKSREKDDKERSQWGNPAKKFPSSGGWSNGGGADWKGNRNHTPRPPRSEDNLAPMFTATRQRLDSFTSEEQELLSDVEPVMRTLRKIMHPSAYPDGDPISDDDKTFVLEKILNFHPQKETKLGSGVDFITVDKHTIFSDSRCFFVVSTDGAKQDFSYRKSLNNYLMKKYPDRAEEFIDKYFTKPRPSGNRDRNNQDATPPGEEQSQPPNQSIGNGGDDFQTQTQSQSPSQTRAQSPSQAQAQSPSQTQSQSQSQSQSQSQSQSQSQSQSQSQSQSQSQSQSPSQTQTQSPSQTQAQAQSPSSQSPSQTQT
UniProt P22953: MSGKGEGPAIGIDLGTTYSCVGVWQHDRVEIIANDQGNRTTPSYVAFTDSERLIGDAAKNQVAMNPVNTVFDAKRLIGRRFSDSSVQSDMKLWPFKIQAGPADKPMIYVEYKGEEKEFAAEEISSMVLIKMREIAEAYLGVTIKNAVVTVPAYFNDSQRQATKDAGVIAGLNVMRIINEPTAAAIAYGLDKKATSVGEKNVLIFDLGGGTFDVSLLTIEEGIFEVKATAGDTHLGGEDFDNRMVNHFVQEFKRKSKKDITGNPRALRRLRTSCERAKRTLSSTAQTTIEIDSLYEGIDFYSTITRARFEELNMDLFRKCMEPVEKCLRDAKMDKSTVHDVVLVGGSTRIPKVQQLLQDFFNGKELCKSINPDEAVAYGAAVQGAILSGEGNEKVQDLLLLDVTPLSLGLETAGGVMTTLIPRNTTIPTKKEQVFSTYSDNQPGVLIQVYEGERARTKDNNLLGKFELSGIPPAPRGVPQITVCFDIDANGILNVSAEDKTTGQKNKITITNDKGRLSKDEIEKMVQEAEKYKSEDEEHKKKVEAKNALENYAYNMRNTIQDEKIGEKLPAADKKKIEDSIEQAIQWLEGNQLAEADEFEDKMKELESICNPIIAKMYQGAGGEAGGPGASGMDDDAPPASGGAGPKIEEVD
UniProt P55737: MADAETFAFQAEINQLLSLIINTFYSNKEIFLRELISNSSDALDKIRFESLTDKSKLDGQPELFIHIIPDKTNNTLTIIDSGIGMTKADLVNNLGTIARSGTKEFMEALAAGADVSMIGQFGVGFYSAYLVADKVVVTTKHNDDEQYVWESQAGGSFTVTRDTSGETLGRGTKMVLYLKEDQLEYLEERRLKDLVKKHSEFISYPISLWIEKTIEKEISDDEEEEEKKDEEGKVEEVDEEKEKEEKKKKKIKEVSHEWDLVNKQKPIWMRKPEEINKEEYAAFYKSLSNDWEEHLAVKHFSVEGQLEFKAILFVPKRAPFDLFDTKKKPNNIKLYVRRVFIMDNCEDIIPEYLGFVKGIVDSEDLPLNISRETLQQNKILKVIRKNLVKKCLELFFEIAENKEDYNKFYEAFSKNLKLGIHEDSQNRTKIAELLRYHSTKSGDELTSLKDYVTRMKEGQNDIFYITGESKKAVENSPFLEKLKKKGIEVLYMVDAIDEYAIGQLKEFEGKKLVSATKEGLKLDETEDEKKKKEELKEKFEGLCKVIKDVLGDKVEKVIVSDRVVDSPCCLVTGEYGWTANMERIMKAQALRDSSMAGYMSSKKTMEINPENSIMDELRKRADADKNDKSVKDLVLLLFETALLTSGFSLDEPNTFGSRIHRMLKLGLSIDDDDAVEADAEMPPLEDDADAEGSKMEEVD
UniProt O65719: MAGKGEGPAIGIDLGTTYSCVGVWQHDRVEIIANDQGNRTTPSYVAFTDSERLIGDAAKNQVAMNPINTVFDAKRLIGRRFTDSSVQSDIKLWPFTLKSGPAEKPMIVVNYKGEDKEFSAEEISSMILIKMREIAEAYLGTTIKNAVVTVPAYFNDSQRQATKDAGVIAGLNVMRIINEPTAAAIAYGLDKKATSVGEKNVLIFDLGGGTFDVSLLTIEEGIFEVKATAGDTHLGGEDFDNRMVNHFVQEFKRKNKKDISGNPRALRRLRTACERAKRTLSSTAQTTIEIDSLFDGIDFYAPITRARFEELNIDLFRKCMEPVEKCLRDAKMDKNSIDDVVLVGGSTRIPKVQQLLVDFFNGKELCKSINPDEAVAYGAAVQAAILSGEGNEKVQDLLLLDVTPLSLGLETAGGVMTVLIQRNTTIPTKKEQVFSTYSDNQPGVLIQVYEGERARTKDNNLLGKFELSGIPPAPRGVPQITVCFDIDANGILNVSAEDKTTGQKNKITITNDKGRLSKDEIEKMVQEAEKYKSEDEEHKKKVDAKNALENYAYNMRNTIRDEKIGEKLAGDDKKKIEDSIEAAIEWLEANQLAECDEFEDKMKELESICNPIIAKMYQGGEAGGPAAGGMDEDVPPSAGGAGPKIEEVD
UniProt Q9SL67: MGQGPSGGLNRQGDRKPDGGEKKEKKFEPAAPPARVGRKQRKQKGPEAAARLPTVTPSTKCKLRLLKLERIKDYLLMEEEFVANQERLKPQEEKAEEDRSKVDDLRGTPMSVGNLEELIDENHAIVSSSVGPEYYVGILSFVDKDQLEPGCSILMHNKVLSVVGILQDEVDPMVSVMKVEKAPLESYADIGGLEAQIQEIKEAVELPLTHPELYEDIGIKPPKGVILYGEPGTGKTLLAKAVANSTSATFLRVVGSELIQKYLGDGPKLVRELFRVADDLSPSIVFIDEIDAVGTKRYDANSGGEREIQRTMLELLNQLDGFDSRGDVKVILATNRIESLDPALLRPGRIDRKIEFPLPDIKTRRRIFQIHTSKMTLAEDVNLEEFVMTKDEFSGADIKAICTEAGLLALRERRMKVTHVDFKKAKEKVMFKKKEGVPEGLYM
UniProt Q9FMR9: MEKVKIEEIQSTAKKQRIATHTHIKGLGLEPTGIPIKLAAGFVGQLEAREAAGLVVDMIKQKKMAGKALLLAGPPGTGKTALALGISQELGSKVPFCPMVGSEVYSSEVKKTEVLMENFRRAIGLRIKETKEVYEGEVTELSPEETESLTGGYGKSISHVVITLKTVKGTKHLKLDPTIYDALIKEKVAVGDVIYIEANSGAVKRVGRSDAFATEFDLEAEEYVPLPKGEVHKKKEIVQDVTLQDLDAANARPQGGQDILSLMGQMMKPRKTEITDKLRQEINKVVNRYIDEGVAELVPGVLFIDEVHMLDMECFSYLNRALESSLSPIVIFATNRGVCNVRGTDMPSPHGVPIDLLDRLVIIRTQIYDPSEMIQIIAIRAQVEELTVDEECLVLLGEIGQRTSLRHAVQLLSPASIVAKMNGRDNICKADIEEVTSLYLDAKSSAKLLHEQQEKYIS
UniProt Q9FJ98: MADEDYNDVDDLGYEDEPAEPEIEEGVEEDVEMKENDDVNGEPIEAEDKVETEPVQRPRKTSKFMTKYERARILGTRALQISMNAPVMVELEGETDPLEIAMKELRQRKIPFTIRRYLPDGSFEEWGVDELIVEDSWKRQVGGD
UniProt Q8LFJ6: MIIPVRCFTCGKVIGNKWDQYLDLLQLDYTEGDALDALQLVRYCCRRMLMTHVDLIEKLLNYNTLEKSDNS
UniProt Q9SJ96: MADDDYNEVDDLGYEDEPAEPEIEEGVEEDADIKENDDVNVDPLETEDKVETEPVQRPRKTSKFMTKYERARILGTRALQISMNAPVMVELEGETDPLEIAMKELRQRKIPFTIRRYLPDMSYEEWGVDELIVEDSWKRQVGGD
UniProt Q9FLM8: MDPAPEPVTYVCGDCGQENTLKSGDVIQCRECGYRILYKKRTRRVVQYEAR
UniProt Q9M1J2: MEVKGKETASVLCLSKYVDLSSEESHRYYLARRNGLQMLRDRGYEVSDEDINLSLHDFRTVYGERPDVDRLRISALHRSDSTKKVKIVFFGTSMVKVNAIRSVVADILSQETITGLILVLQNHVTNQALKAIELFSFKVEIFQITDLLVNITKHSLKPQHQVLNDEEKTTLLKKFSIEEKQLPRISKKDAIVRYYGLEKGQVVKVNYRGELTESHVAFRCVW

target: NRPE1-FLAG (largest subunit of nuclear RNA polymerase V) (Arabidopsis thaliana) (UniProt Q5D869); experiment: affinity purification with mass spectrometry; dimethylated anti-FLAG beads; 14N/15N metabolic labelling of NRPE1-FLAG transgenic against wild-type Col-0 seedlings, forward and reciprocal, two biological duplicates; ratios by Mascot Distiller

Substance | binding
HSP70-1 (from UniProt P22953 1-651) | binds
HSP81-2 (from UniProt P55737 1-699) | binds
HSP70-3 (from UniProt O65719 1-649) | binds

target: NRPE1-FLAG (Arabidopsis thaliana) (UniProt Q5D869); experiment: affinity purification with mass spectrometry; dimethylated anti-FLAG antibody purification with forward and reciprocal 14N/15N metabolic labelling of Col-0 wild-type and NRPE1-FLAG transgenic seedlings; H/L ratios by LC MS/MS to tell specific from non-specific proteins

Substance | binding
regulatory particle AAA-ATPase 2B (from UniProt Q9SL67 1-443) | binds
RuvB-like protein 1 (from UniProt Q9FMR9 1-458) | binds

target: NRPE1-FLAG (largest subunit of nuclear RNA polymerase V) (Arabidopsis thaliana) (UniProt Q5D869); experiment: affinity purification with mass spectrometry; anti-FLAG M2 beads (non-methylated, Control 1 and 2, or dimethylated) in lysate of 14-day NRPE1-FLAG transgenic Arabidopsis seedlings, 4 °C, 3 h; on-bead digestion by trypsin, or by Lys-C and then trypsin; LC MS/MS; three biological repeats

Substance | binding
NRPE6a (from UniProt Q9FJ98 1-144) | binds
NRPE10 (from UniProt Q8LFJ6 1-71) | binds
NRPE6b (from UniProt Q9SJ96 1-144) | binds
NRPE12 (from UniProt Q9FLM8 1-51) | binds
NRPE5 (from UniProt Q9M1J2) | binds

These are yes or no findings as the source states them, for the method shown. Binding seen in cells or lysates may run through a third protein. A yes stands for co-enrichment or nearness to the bait. Other partners may have been found.
